This passage reports binding results from article PMC10329651, “ATPase activity of DFCP1 controls selective autophagy” (Nature Communications, 2023).

Assay [1] has as its target His6-MBP-DFCP1 WT (aa 1-410) (UniProt Q9HBF4). Description: condition: only loaded with 400 µM ADP instead of ATPγS; SEC; protein loaded with 400 µM ADP for 20 min at RT in exchange buffer (50 mM Tris, 150 mM NaCl, 50 mM MgCl2, 10% glycerol, 1 mM TCEP); Superdex 200 Increase 10/300 GL, isocratic elution at 4 °C, 0.25 ml/min; molecular weights relative to a Bio-Rad gel filtration standard; both purified. On the technique in general: In gel filtration, larger molecules generally elute earlier.

The target of assay [2] is His6-MBP-DFCP1 K193A (aa 1-410) (UniProt Q9HBF4). Description: SEC; protein loaded with 400 µM ADP for 20 min at RT in exchange buffer (50 mM Tris, 150 mM NaCl, 50 mM MgCl2, 10% glycerol, 1 mM TCEP); Superdex 200 Increase 10/300 GL, isocratic elution at 4 °C, 0.25 ml/min; molecular weights relative to a Bio-Rad gel filtration standard; both purified.
Assay [3] shares this target. The assay can be described thus: SEC; protein loaded with 400 µM ATPγS for 20 min at RT in exchange buffer (50 mM Tris, 150 mM NaCl, 50 mM MgCl2, 10% glycerol, 1 mM TCEP); Superdex 200 Increase 10/300 GL, isocratic elution at 4 °C, 0.25 ml/min; molecular weights relative to a Bio-Rad gel filtration standard; both purified.
The target of assay [4] is His6-MBP-DFCP1 T189A (aa 1-410) (UniProt Q9HBF4). Description: SEC; protein loaded with 400 µM ADP for 20 min at RT in exchange buffer (50 mM Tris, 150 mM NaCl, 50 mM MgCl2, 10% glycerol, 1 mM TCEP); Superdex 200 Increase 10/300 GL, isocratic elution at 4 °C, 0.25 ml/min; molecular weights relative to a Bio-Rad gel filtration standard; both purified.
The target is the same in assay [5]. Description: SEC; protein loaded with 400 µM ATPγS for 20 min at RT in exchange buffer (50 mM Tris, 150 mM NaCl, 50 mM MgCl2, 10% glycerol, 1 mM TCEP); Superdex 200 Increase 10/300 GL, isocratic elution at 4 °C, 0.25 ml/min; molecular weights relative to a Bio-Rad gel filtration standard; both purified.

Results are given in words; binding and its absence hold for the method and conditions named. Sequences can lack the tags named with a protein.

B1: His6-MBP-DFCP1 WT (aa 1-410) (domain or fragment, UniProt Q9HBF4 1-410, looked up)
chain: MSAQTSPAEKGLNPGLMCQESYACSGTDEAIFECDECCSLQCLRCEEELHRQERLRNHERIRLKPGHVPYCDLCKGLSGHLPGVRQRAIVRCQTCKINLCLECQKRTHSGGNKRRHPVTVYNVSNLQESLEAEEMDEETKRKKMTEKVVSFLLVDENEEIQVTNEEDFIRKLDCKPDQHLKVVSIFGNTGDGKSHTLNHTFFYGREVFKTSPTQESCTVGVWAAYDPVHKVAVIDTEGLLGATVNLSQRTRLLLKVLAISDLVIYRTHADRLHNDLFKFLGDASEAYLKHFTKELKATTARCGLDVPLSTLGPAVIIFHETVHTQLLGSDHPSEVPEKLIQDRFRKLGRFPEAFSSIHYKGTRTYNPPTDFSGLRRALEQLLENNTTRSPRHPGVIFKALKALSDRFSGE
notes: Loaded with ADP or ATPγS before size exclusion chromatography; dimer with ATPγS, monomer with ADP; The vector has a TEV site, but no cleavage is described; also called DFCP1 N-terminus; DFCP1 ATPase domain; not shown: His6, N-terminal, kept; MBP, N-terminal, kept
For B1, in assay [1], the binding result is “no binding”.

B2: His6-MBP-DFCP1 K193A (aa 1-410) (domain or fragment, UniProt Q9HBF4 1-410)
chain: MSAQTSPAEKGLNPGLMCQESYACSGTDEAIFECDECCSLQCLRCEEELHRQERLRNHERIRLKPGHVPYCDLCKGLSGHLPGVRQRAIVRCQTCKINLCLECQKRTHSGGNKRRHPVTVYNVSNLQESLEAEEMDEETKRKKMTEKVVSFLLVDENEEIQVTNEEDFIRKLDCKPDQHLKVVSIFGNTGDGASHTLNHTFFYGREVFKTSPTQESCTVGVWAAYDPVHKVAVIDTEGLLGATVNLSQRTRLLLKVLAISDLVIYRTHADRLHNDLFKFLGDASEAYLKHFTKELKATTARCGLDVPLSTLGPAVIIFHETVHTQLLGSDHPSEVPEKLIQDRFRKLGRFPEAFSSIHYKGTRTYNPPTDFSGLRRALEQLLENNTTRSPRHPGVIFKALKALSDRFSGE
Regarding B2, the binding entry in assay [2] and in assay [3] was “no binding” throughout.

B3: His6-MBP-DFCP1 T189A (aa 1-410) (domain or fragment, UniProt Q9HBF4 1-410)
chain: MSAQTSPAEKGLNPGLMCQESYACSGTDEAIFECDECCSLQCLRCEEELHRQERLRNHERIRLKPGHVPYCDLCKGLSGHLPGVRQRAIVRCQTCKINLCLECQKRTHSGGNKRRHPVTVYNVSNLQESLEAEEMDEETKRKKMTEKVVSFLLVDENEEIQVTNEEDFIRKLDCKPDQHLKVVSIFGNAGDGKSHTLNHTFFYGREVFKTSPTQESCTVGVWAAYDPVHKVAVIDTEGLLGATVNLSQRTRLLLKVLAISDLVIYRTHADRLHNDLFKFLGDASEAYLKHFTKELKATTARCGLDVPLSTLGPAVIIFHETVHTQLLGSDHPSEVPEKLIQDRFRKLGRFPEAFSSIHYKGTRTYNPPTDFSGLRRALEQLLENNTTRSPRHPGVIFKALKALSDRFSGE
In the case of B3, the binding entry in assay [4] and in assay [5] was “no binding” each time.
